PubChem BioAssay AID1508597 | Cure First | 2020

Aim: 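Knock-downs altering ovarian cancer cell survival with or without PARP inhibitor rucaparib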 (primary screen)
System: human ovarian carcinoma lines grown from tumours: OCI-P5x (papillary serous) and OCI-C5x (clear cell)
Reagents: siRNA pool against human genes, 1.25 pmol siRNA per well
Timing: 72 h or 96 h, depending on the cell culture
Treatment: rucaparib 20 µM (about IC30) or vehicle, present until read-out
Rucaparib or vehicle: Vehicle
Cell line: OCI-C5x (clear cell)
Read-out: 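ATP luminescence measured at 72 or 96 h according to the culture, then normalised and expressed as percent viability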
Scale: viability, normalised: higher = more viable cells remaining
Hit rule: 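a well counts as a hit if its normalised viability is under 80 percent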
Meaning of the calls: active = viability under 80%; inactive = viability 80% or more
Shown is a random part of the about 2,100 reagents, under one of the conditions tested. 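Calls flag viability under 80% in either arm, not effects specific to rucaparib; the reference for percent is not stated.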 A number with no mark means an inactive call. Some reagents were tested in more than one well and are listed for each. Not stated in the record: the 100% reference.

The first 3 records, ahead of the listing:
| gene knocked down | technical replicate | viability, normalised (%) |
| --- | --- | --- |
| DPH5 | 1 | 29.1 (active) |
| DPH5 | 2 | 37.2 (active) |
| DPH5 | 3 | 35 (active) |

The list itself, repeating the preview:
| gene knocked down | technical replicate | viability, normalised (%) |
| --- | --- | --- |
| DPH5 | 1 | 29.1 (active) |
| DPH5 | 2 | 37.2 (active) |
| DPH5 | 3 | 35 (active) |
| DHX29 | 1 | 44.7 (active) |
| DHX29 | 2 | 63 (active) |
| DHX29 | 3 | 47.1 (active) |
| PDP1 | 1 | 99.5 |
| PDP1 | 2 | 68.4 (active) |
| PDP1 | 3 | 64.5 (active) |
| CDKL1 | 1 | 58.9 (active) |
| CDKL1 | 2 | 70.5 (active) |
| CDKL1 | 3 | 65.5 (active) |
| DCLK3 | 1 | 59.3 (active) |
| DCLK3 | 2 | 61.3 (active) |
| DCLK3 | 3 | 47.6 (active) |
| ITPKA | 1 | 44.8 (active) |
| ITPKA | 2 | 40.5 (active) |
| ITPKA | 3 | 34.7 (active) |
| RPS3A | 1 | 22.5 (active) |
| RPS3A | 2 | 25.3 (active) |
| RPS3A | 3 | 29.2 (active) |
| RECQL | 1 | 46.4 (active) |
| RECQL | 1 | 80.1 |
| RECQL | 2 | 62 (active) |
| RECQL | 2 | 33.6 (active) |
| RECQL | 3 | 31 (active) |
| RECQL | 3 | 69.7 (active) |
